According to PMC11044841:
No constants are given. Whether binding was seen depends on the method and setting. In cells and extracts the contact can be indirect. Here binding means that the protein was enriched with, or labelled near, the bait; the list need not be complete. For some of these results: A no says only that the protein was not detected with the bait.

The chains behind the UniProt entries cited, without tags or fusion partners. Where a name states a change or a piece, a line headed by the entry shows the natural chain unless it says otherwise.
UniProt Q13283: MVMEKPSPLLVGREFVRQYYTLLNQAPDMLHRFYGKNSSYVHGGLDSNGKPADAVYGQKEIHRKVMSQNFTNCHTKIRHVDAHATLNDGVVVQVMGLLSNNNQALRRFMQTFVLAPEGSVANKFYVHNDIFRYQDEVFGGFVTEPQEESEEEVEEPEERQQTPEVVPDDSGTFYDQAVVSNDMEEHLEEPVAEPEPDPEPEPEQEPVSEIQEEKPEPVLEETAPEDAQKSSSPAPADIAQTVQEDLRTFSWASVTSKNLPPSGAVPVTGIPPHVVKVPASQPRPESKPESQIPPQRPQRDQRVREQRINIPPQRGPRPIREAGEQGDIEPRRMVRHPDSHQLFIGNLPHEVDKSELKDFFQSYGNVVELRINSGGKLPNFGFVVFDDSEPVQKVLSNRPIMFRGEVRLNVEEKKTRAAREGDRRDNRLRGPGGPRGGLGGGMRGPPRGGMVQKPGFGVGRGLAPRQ
UniProt Q14157: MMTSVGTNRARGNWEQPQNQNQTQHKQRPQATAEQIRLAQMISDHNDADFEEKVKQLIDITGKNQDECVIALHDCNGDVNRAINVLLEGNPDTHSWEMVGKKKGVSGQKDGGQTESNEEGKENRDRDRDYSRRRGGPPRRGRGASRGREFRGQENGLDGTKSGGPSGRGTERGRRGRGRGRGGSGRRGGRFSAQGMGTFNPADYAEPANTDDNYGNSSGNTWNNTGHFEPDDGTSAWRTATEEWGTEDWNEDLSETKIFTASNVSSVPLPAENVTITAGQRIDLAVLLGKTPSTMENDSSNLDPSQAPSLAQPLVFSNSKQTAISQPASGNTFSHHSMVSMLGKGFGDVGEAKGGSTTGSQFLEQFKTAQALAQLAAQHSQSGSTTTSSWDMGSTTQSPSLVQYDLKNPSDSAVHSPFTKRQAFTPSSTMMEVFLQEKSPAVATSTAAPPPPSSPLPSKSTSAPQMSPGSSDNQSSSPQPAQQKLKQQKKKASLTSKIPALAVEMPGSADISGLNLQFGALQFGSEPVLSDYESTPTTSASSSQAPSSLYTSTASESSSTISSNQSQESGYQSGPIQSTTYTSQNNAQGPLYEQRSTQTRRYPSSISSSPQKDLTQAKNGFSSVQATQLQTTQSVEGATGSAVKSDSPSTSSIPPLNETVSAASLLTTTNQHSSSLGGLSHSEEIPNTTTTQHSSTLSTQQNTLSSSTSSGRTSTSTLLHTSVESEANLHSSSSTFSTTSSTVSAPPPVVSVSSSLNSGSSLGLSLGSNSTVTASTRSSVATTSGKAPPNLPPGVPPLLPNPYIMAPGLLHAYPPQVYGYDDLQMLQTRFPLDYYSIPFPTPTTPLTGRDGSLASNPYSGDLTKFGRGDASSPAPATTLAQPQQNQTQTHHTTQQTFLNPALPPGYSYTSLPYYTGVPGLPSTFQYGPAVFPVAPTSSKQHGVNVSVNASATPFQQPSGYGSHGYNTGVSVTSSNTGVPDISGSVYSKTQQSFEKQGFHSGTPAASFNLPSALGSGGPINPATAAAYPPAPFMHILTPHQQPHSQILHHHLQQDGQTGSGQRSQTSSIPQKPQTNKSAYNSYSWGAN
UniProt P49790: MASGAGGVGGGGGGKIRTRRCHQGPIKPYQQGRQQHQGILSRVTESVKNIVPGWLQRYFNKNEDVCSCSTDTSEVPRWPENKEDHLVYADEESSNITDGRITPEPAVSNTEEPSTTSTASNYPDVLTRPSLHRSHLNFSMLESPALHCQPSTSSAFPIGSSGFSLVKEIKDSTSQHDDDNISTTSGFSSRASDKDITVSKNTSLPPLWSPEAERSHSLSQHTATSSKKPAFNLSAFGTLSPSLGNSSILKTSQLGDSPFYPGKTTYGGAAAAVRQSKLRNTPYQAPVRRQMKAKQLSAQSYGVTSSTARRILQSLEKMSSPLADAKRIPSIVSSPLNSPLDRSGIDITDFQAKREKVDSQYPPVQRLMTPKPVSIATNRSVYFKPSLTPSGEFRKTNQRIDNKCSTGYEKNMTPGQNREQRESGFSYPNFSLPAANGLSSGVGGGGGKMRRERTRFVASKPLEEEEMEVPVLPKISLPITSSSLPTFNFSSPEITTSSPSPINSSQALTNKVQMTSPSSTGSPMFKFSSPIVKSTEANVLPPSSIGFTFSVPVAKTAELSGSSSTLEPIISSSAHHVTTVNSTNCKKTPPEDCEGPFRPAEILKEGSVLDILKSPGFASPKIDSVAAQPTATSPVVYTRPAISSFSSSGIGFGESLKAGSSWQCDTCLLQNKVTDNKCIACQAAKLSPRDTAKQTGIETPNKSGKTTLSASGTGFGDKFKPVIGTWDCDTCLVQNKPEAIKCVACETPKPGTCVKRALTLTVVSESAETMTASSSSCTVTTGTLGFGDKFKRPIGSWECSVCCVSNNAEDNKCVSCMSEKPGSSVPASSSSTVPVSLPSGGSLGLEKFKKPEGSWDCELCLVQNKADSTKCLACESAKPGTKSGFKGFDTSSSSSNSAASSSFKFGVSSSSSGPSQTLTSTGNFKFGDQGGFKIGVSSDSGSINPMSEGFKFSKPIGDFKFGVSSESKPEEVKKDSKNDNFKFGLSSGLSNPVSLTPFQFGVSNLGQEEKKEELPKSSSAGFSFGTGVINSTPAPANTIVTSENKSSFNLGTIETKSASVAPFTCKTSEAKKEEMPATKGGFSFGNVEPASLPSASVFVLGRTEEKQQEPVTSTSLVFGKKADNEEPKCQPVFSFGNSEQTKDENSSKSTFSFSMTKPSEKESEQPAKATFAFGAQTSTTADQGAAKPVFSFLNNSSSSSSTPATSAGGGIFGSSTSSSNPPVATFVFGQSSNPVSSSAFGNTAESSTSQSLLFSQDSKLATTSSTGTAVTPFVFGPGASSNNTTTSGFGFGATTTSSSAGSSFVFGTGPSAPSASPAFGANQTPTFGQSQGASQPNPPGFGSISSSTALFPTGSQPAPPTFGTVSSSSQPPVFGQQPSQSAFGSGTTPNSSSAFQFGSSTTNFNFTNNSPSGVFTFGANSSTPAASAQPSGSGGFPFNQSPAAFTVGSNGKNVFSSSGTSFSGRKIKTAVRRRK
UniProt P51114: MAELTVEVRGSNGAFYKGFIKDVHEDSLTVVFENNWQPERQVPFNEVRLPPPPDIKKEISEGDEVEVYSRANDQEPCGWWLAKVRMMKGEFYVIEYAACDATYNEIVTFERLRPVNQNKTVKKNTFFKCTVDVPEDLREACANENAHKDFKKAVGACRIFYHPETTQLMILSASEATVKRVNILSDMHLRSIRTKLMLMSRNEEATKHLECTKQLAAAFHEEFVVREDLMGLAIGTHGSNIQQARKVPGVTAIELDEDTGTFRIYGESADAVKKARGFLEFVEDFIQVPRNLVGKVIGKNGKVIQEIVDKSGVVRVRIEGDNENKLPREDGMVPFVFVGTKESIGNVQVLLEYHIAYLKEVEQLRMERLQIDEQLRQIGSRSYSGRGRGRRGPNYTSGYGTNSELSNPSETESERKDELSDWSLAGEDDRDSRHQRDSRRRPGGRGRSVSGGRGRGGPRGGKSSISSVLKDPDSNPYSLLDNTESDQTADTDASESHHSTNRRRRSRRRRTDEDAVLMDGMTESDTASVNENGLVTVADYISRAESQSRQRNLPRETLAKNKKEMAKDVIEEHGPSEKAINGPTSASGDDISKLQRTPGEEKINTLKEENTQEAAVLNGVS

Legend:
Assay in all cases: affinity purification with mass spectrometry
G3BP1-F112A-EGFP (human) = G3BP1-F112A-EGFP (human) (UniProt Q13283)
G3BP1-V11A-EGFP (human) = G3BP1-V11A-EGFP (human) (UniProt Q13283)
G3BP1-EGFP (human) = G3BP1-EGFP (human) (UniProt Q13283)
G3BP1-F124W-EGFP (human) = G3BP1-F124W-EGFP (human) (UniProt Q13283)

With UBP2L (from UniProt Q14157 1-1087) as the substance, how does the binding (G3BP1-F112A-EGFP (human)) read?
The binding was “binds”.

And the binding (G3BP1-V11A-EGFP (human))?
The binding was “no binding”.

And the binding (G3BP1-EGFP (human))?
Its binding is “binds”.

What about the binding (G3BP1-F124W-EGFP (human)) of the same substance?
Its binding is “binds”.

How did the binding (G3BP1-F112A-EGFP (human)) turn out when Nup153 (from UniProt P49790 1-1475) was run?
The binding was “no binding”.

What about the binding (G3BP1-V11A-EGFP (human)) of the same substance?
The binding was “no binding”.

What about the binding (G3BP1-EGFP (human)) of the same substance?
The binding was “binds”.

What about the binding (G3BP1-F124W-EGFP (human)) of the same substance?
Its binding is “binds”.

For FXR1 (from UniProt P51114 1-621), which binding (G3BP1-F112A-EGFP (human)) is on record?
Its binding is “binds”.

What about the binding (G3BP1-F124W-EGFP (human)) of the same substance?
Its binding is “binds”.
